Test results: US20180286508A1, “DETERMINATION OF FAVORABLE DATE(S) FOR THERAPEUTIC TREATMENT DELIVERY” (Mayo Foundation for Medical Education and Research, priority 2015, published 2018)
For at least one compound, name, drawing or mass did not settle the structure.

What was measured:
[1] = tested on: patients with metastatic melanoma (stage IV); assay: Phase II clinical trial MC1076 of timed administration of TMZ; assay type: in vivo, human; settings: most patients with good disease control (PFS longer than 4 months); before vs after treatment, FIG. 25
Excerpt: Eligible patients had unresectable, histologically confirmed stage IV disease, age over 18 years, measurable disease as defined by the Response Evaluation Criteria in Solid Tumors (RECIST), Eastern Cooperative Oncology Group (ECOG) performance status of 0-2, and life expectancy≥3 months (See Table 10). Both previously untreated patients and patients who have had prior therapy for their metastatic disease (excluding prior exposure to TMZ) were eligible. All patients provided signed informed written consent, and the study was approved by the Mayo Clinic Rochester Institutional Review Board. […] At the end of the sample collections, all data was jointly analyzed and a day for individualized TMZ delivery was calculated according to the proposed model (below). […]
Analysis of infradian (multi-day) dynamics in systemic immunity of patients with metastatic melanoma. […] At the end of the sample collection period, samples were batched analyzed (to minimize inter-assay variability for a given patient) for measurement of dynamic changes of plasma cytokines and immune cell subsets using established, standardized, and Good Laboratory Practice (GLP)-validated methodology in our laboratory.^35 Time-dependent profiles of immune variables (cytokines and immune cell subsets) were then analyzed and an optimal day for initiation of TMZ therapy was prospectively computed by the algorithm described below. […]

[2] = tested on: proliferating monocytes which are depleted of MGMT; settings: cited from earlier work
susceptible immune cells = settings: after oral administration; cited from earlier work

## Cn1nnc2c(C(N)=O)ncn2c1=O [TMZ, temozolomide]
[1]
  immunomodulatory effect of timed administration (CD8, CD4 T cells up; CD11c.14 monocytes, Tregs, VEGF down): positive immunomodulatory effect
[2]; exposure to methylating genotoxins such as TMZ, non-proliferating PBLCs protected
  monocytic population after exposure: specifically depleted
[2]; preclinical models, concentrations up to 50 μM, preferentially in proliferating monocytes depleted of MGMT
  apoptosis: dose-dependent apoptosis
Susceptible immune cells
  time at which induced DNA strand breakage and apoptosis is detectable: 4 h
